We go through two molecules from paper PMC4072592.

Chains of the proteins cited; added tags and fusions are not shown.
UniProt P82804: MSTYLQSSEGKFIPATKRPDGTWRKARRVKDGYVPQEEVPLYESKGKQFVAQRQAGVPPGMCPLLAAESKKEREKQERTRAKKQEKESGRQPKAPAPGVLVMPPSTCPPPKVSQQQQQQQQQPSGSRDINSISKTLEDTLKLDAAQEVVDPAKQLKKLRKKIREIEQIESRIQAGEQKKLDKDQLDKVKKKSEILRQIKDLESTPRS

No constants are given. Whether binding was seen depends on the method and setting. Binding seen in cells or lysates may run through a third protein. Some binding calls cover weakened binding; strength is not graded here.

The target of assay [1] is GFP-Mago (transgene, ovaries) (Drosophila), P49028. In words: co-IP; GFP-Trap beads on cytoplasmic extracts of osk^A87/+ ovaries co-expressing GFP-Mago and a FLAG-tagged PYM construct; washes with 600 mM KCl; western blot of 20% of the beads. Particulars: remark: other sources report otherwise. In general terms: In western blotting, separated proteins are transferred to a membrane and probed.

The target of assay [2] is Drosophila PYM (DmPYM), endogenous (Drosophila (endogenous in fly ovaries)) (UniProt P82804). In words: co-IP; anti-PYM antibody (anti-HA as unrelated antibody) on cytoplasmic extract of wild-type ovaries, 4°C, with or without RNase; washes with 300 mM KCl, 0.2% NP-40; western blot.

B1: eIF4AIII, endogenous in ovaries, Q9VHS8 1-399 (protein)
chain: MARKNAQAEDLSNVEFETSEDVEVIPTFNAMNLKEELLRGIYAYGFEKPSAIQQRSITPIVKGRDVIAQAQSGTGKTATFSISILQSLDTTLRETQVLCLSPTRELAVQIQKVILALGDMMNVQCHVCIGGTNLGEDIRKLDYGQHIVSGTPGRVFDMIKRRVLRTRAIKMLVLDEADEMLNKGFKEQIYDVYRYLPPATQVVLISATLPHEILEMTSKFMTDPIRILVKRDELTLEGIKQFFVAVEREEWKFDTLCDLYDTLTITQAVIFCNTKRKVDWLTEKMREANFTVSSMHGDMPQKERDEIMKEFRAGQSRVLITTDVWARGIDVQQVSLVINYDLPNNRELYIHRIGRSGRFGRKGVAINFVKSDDIRILRDIEQYYSTQIDEMPMNVADLI
For B1, in assay [1], the binding entry was “binds”.

B2: CBP20, endogenous in ovaries (protein, UniProt Q9V3L6 1-154)
chain: MFASVELSSYRDQHFKGSRSEQERSLRDSCTLYVGNLSFYTTEEQIHELFSRCGDVRVIVMGLDKYKKTPCGFCFVEYYVRSEAEAAMRFVNGTRLDDRLIRVDWDAGFVEGRQYGRGKTGGQVRDEYRTDYDAGRGGYGKLLSQKIAPNTDNR
Regarding B2, the binding entry in assay [2] is listed as “no binding”.
